Reference: the supplement of paper PMC10735217
Where a name gives a salt, the structure may show the parent alone. The list shows a part of the results. This data set is noisy: repeats of one test often differ as much as different tests do.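 The human kidney-derived cells carry a stably integrated construct of eight TEAD-binding elements driving luciferase, read by luminescence in a drug-repurposing library screen. A compound counts as a hit when its signal is more than five robust Z scores above the plate mean.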

System: HEK293A TEAD-LUC reporter
Test: TEAD-luciferase reporter activity (YAP activation), robust Z score vs plate; higher = stronger YAP/TEAD activation
Settings: 24 h

| Compound | TEAD-luciferase reporter activity (compound concentration: 2 uM) | TEAD-luciferase reporter activity (compound concentration: 200 nM) | TEAD-luciferase reporter activity (compound concentration: 10 uM) |
| --- | --- | --- | --- |
| CCOc1ccccc1OCCNC(C)Cc1ccc(OC)c(S(N)(=O)=O)c1 (stereo not given) [tamsulosin (0.2mg)] | inactive: -0.319 |  |  |
| CCOc1ccccc1OCCNC(C)Cc1ccc(OC)c(S(N)(=O)=O)c1 (stereo not given) [tamsulosin (0.2mg), GL PharmTech] |  | inactive: -3.02 | inactive: -1.5 |
| N=C(N)N/N=C/c1ccc(Cl)cc1Cl | inactive: -0.39 | inactive: 0.63 | inactive: 0.865 |
| C[C@H](CSN=O)C(=O)N1CCC[C@H]1C(=O)O | inactive: 0.709 | inactive: 2.37 | inactive: -0.257 |
| NC(=O)[C@H](Cc1ccc(-c2ccccc2)cc1)NC(=O)c1ccc(-c2ccc(C(F)(F)F)cc2)cc1 | inactive: -0.3 | inactive: -0.839 | inactive: -0.873 |
| COCCOCCOc1ccc(C2=N[C@@](C)(C(=O)O)CS2)c(O)c1 | inactive: -0.639 | active: 5.72 | inactive: -1.11 |
| COc1ccccc1N1CCC(CCCN2C(=O)CCCC2=O)CC1 | inactive: 0.118 | inactive: -0.172 | inactive: -0.745 |
| CCCCCCOC(=O)c1cccnc1 | inactive: 0.0923 | inactive: 3.53 | inactive: -0.102 |
| c1ccc2c(c1)CC(N1CCN(c3cccc4c3OCCO4)CC1)C2 | inactive: 1.38 | inactive: -0.0141 | inactive: -1.1 |
| O=C1CCC(N2Cc3ccccc3C2=O)C(=O)N1 (stereo not given) | inactive: -0.214 | inactive: -0.225 | active: 5.42 |
| CC[C@H](C)[C@H](NC(=O)[C@H](C)NC(=O)[C@H](CC(=O)O)NC(=O)[C@H](C)NC(=O)[C@@H](N)Cc1ccc(O)cc1)C(=O)N[C@@H](Cc1ccccc1)C(=O)N[C@H](C(=O)N[C@@H](CC(N)=O)C(=O)N[C@@H](CO)C(=O)N[C@@H](Cc1ccc(O)cc1)C(=O)N[C@@H](CCCNC(=N)N)C(=O)N[C@@H](CCCCN)C(=O)N[C@H](C(=O)N[C@H](CC(C)C)C(=O)NCC(=O)N[C@@H](CCC(N)=O)C(=O)N[C@@H](CC(C)C)C(=O)N[C@@H](CO)C(=O)N[C@@H](C)C(=O)N[C@@H](CCCNC(=N)N)C(=O)N[C@@H](CCCCN)C(=O)N[C@@H](CC(C)C)C(=O)N[C@@H](CC(C)C)C(=O)N[C@@H](CCC(N)=O)C(=O)N[C@@H](CC(=O)O)C(=O)N[C@H](C(=O)N[C@@H](CCSC)C(=O)N[C@@H](CO)C(=O)N[C@@H](CCCNC(=N)N)C(N)=O)[C@@H](C)CC)C(C)C)[C@@H](C)O [Sermorelin] | inactive: 0.452 | inactive: -1.3 | inactive: 0.314 |
| C[C@]12CCC(=O)C=C1CCC1C2CC[C@@]2(C)C1CC[C@]2(O)C(=O)CSCCO (stereo not given in full) | inactive: 1.57 | inactive: -1.22 | inactive: 0.84 |
| O=C(O)CCCCN(CCc1ccccc1OCc1ccc(CCc2ccccc2)cc1)Cc1ccc(C(=O)O)cc1 [Cinaciguat] | inactive: 0.455 | inactive: -0.684 | inactive: 1.05 |
| CC(=O)[C@H]1CC[C@H]2[C@@H]3CCC4=CC(=O)CC[C@]4(C)[C@H]3CC[C@]12C [Progesterone] | inactive: 0.804 | inactive: 0.744 | inactive: 0.918 |
| CCCCOc1cc(N)ccc1C(=O)OCCN(CC)CC | inactive: -1.28 | inactive: -2.01 | inactive: -0.42 |
| CN(C)[C@@H]1CCC[C@H]1OC(=O)C(c1ccccc1)c1ccccc1 | inactive: -0.859 | inactive: -2.9 | inactive: -0.915 |
| COC(=O)C1=C(C)NC(C)=C(C(=O)OCCCCCCOc2cc(-c3ccccc3)[nH]n2)C1c1cccc([N+](=O)[O-])c1 (stereo not given) | inactive: -1.54 | inactive: -1.37 | inactive: -0.208 |
| C#CCN(Cc1ccc2[nH]c(C)nc(=O)c2c1)c1ccc(S(=O)(=O)n2ccc3ccccc32)cc1 | inactive: -2.17 | inactive: -0.491 | inactive: 1.15 |
| CCCCCCCCCC(=O)c1ccc(O)c(C(=O)Nc2ccc([N+](=O)[O-])cc2)c1 | inactive: -1.16 | inactive: -1.24 | inactive: 2.75 |
| C[C@H]1CO[C@@H]2Cn3cc(C(=O)NCc4ccc(F)cc4F)c(=O)c(O)c3C(=O)N12 [cabotegravir] | inactive: -0.666 | inactive: -0.0603 | inactive: 1.37 |
| COC(=O)c1cc2c(C(O)CNC(C)(C)C)ccc(O)c2[nH]1 (stereo not given) | inactive: -0.473 | inactive: -1.07 | inactive: 0.422 |
| CCCN(Cc1ccc(Oc2ccccc2)cc1)C(=O)C1C(C(=O)O)C(C(=O)N(CCC)Cc2ccc(Oc3ccccc3)cc2)C1C(=O)O (stereo not given) | inactive: -1.27 | inactive: -1.36 | inactive: -1.24 |
| Cc1ccc(C(=O)Oc2c(Br)cc(Br)c3ccc(C)nc23)cc1 | inactive: -0.49 | inactive: -1.26 | inactive: 0.000197 |
| CCOC(=O)CN(CCN(CC(=O)O)Cc1ccccc1O)Cc1ccccc1O | inactive: 2.16 | inactive: -0.298 | inactive: 2.31 |
| CC(C)(Sc1cc(C(C)(C)C)c(O)c(C(C)(C)C)c1)Sc1cc(C(C)(C)C)c(COC(=O)O)c(C(C)(C)C)c1 | inactive: 0.425 | inactive: -1.94 | inactive: 0.0605 |
| CS(=O)(=O)c1ccc(-n2nc(C(F)(F)F)cc2-c2ccc(F)cc2)cc1 | inactive: -0.773 | inactive: -1.8 | inactive: 1.71 |
| CC(C)NCC(O)COc1ccccc1C1CC1 (stereo not given) [Procinolol] | inactive: 0.132 | inactive: 0.58 | inactive: 0.536 |

Exported with each value named: part of the list above
NC(=O)[C@H](Cc1ccc(-c2ccccc2)cc1)NC(=O)c1ccc(-c2ccc(C(F)(F)F)cc2)cc1
  TEAD-luciferase reporter activity (compound concentration: 2 uM): inactive: -0.3
  TEAD-luciferase reporter activity (compound concentration: 200 nM): inactive: -0.839
  TEAD-luciferase reporter activity (compound concentration: 10 uM): inactive: -0.873
COCCOCCOc1ccc(C2=N[C@@](C)(C(=O)O)CS2)c(O)c1
  TEAD-luciferase reporter activity (compound concentration: 2 uM): inactive: -0.639
  TEAD-luciferase reporter activity (compound concentration: 200 nM): active: 5.72
  TEAD-luciferase reporter activity (compound concentration: 10 uM): inactive: -1.11

Next entries.

| Compound | TEAD-luciferase reporter activity (compound concentration: 2 uM) | TEAD-luciferase reporter activity (compound concentration: 200 nM) | TEAD-luciferase reporter activity (compound concentration: 10 uM) |
| --- | --- | --- | --- |
| O=C(Nc1cccc2c(=O)cc(-c3nnn[nH]3)oc12)c1ccc2c(c1)CC(COCc1ccc(F)cc1)O2 (stereo not given) | inactive: -0.807 | inactive: 1.97 | inactive: -0.338 |
| CC(C)NC(=O)N1CNC(=O)C12CCN(C(=O)C1CCN(C)CC1)CC2 |  | inactive: -1.79 | inactive: 0.302 |
| O=c1c2ccccc2c(Cc2ccc(Cl)cc2)nn1C[C@H]1CCCN1CCCCc1ccc(OCCCN2CCCCCC2)cc1 | inactive: 0.0765 | inactive: -1.33 | inactive: 1.23 |
| COc1ccc(Cl)cc1C1(F)C(=O)N(COP(=O)(O)O)c2cc(C(F)(F)F)ccc21 (stereo not given) | inactive: -1.07 | inactive: 0.357 | inactive: 1.29 |
| COC(=O)NC1CCCN(c2nc3ncccc3o2)C1 (stereo not given) |  | inactive: -0.558 | inactive: -0.0692 |
| COc1cc(C(C)=O)ccc1OCCCN1CCC(c2noc3cc(F)ccc23)CC1 [iloperidone injection] | inactive: -0.523 | inactive: -0.781 | inactive: -0.557 |
| O=C(c1ccc2c(c1)OCO2)n1c(=O)c(F)cn([C@H]2C[C@H](O)[C@@H](CO)O2)c1=O | inactive: -1.28 | inactive: -1.72 | inactive: -1.16 |
| CC1=NN(CCOc2ccc3ccccc3c2)C(=O)C1 | inactive: -0.713 | inactive: -0.362 | inactive: -0.554 |
| CC(C)(O)c1ccccc1CC[C@H](SCC1(C(=O)O)CC1)c1cccc(/C=C/c2ccc3ccc(Cl)cc3n2)c1 | inactive: 1.91 | inactive: -0.547 | active: 7.4 |
| N[C@@H](C=O)[C@@H](O)[C@@H](O)[C@H](O)CO [glucosamine sulfate] | inactive: 1.1 | inactive: -1.26 | inactive: -0.151 |
| COc1ccc(OC)c(Cc2nc3ccc(OC(C)C)cc3c(=O)n2CCN(C)C)c1 | inactive: -0.69 | inactive: 0.389 | inactive: -0.642 |
| CC(=O)Oc1cccc(O)c1 [Resorcinol (monoacetate)] | inactive: -0.0406 |  |  |
| CC(=O)Oc1cccc(O)c1 [3-Hydroxyphenyl acetate] |  |  | inactive: -0.585 |
| Nc1ccn([C@@H]2C=C(CO)[C@@H](O)[C@H]2O)c(=O)n1 |  | inactive: 0.123 | inactive: 0.502 |
| COC[C@H](O)COc1ccc(OCc2cccc(Cl)c2)cc1 | inactive: 1.91 | inactive: -0.201 | inactive: 0.357 |
| COc1cc2c(Nc3ccc(Br)cc3F)ncnc2cc1OCCn1ccnn1 | inactive: -2.03 | inactive: -1.33 | inactive: -2.12 |
| Cc1cc(N2CCOCC2)nc(C)c1NC(=O)OCc1ccccc1 | inactive: -0.152 | inactive: -1.87 | inactive: 0.0153 |
| COc1ccc(CC2SC(=O)NC2=O)cc1C(=O)NCc1ccc(C(F)(F)F)cc1 (stereo not given) |  | inactive: 4.69 | inactive: 0.465 |
| O=c1[nH]cnc2c1ncn2C1OC(CO)C(O)C1O (stereo not given) | inactive: 0.98 | inactive: -0.863 | inactive: 0.11 |
| Nc1nc2c(ncn2CCC(CO)CO)c(=O)[nH]1 |  | inactive: 2.42 | inactive: 0.592 |
| Nc1nc2c(ncn2CCC(CO)CO)c(=O)[nH]1 [penciclovir] | inactive: -0.958 |  |  |
| CC#CCn1c(N2CCNCC2)nc2cnn(C)c(=O)c21 | inactive: 3.29 | inactive: 0.884 | inactive: 2.11 |
| NC(=O)/C(=C/n1cnc(-c2cc(C(F)(F)F)cc(C(F)(F)F)c2)n1)c1cncnc1 [Eltanexor] | inactive: -1.73 | inactive: -0.26 | inactive: -0.925 |
| COc1ccc(Cl)cc1/N=N/c1ncc[nH]1 | inactive: -0.215 | inactive: 0.407 | inactive: 0.276 |
| Cn1c(=O)[nH]c2ccc(S(=O)(=O)Nc3ccc(C(=O)N4CCCC4)cc3)cc2c1=O | inactive: -0.0552 | inactive: -0.672 | inactive: 0.338 |
| CC1(C)CC(=O)c2c(O)cc(O)cc2O1 | inactive: 0.0333 | inactive: -0.741 | inactive: -1.39 |
